At least one peptide structure holds a part that was inferred or is arguable (an end, a ring closure or a residue).
Tested on: breast cancer
Assay: effect on patients with breast cancer
Type: in vivo
Details: e.g. arresting progress of the disease, extent and duration of the response

C[C@@H](O)[C@@H]1NC(=O)[C@H](CCCCN)NC(=O)[C@@H](Cc2c[nH]c3ccccc23)NC(=O)[C@H](Cc2ccccc2)NC(=O)[C@@H](NC(=O)[C@H](N)Cc2ccccc2)CSSC[C@@H](C(=O)N[C@H](CO)[C@@H](C)O)NC1=O [Octreotide, octreotide]
effect on patients with breast cancer: beneficial effect

Reference: patent US6066616A, “Somatostatin analogue composition and use in treating breast cancer” (Novartis AG, priority 1987, dated 2000)
